Reference: article PMC9198048, “Ursodeoxycholic acid reduces antitumor immunosuppression by inducing CHIP-mediated TGF-β degradation” (Nature Communications, 2022)
No constants are given. Whether binding was seen depends on the method and setting. For some assays here: Binding seen in cells or lysates may run through a third protein. Some binding calls cover weakened binding; strength is not graded here.

Chains of the proteins cited; added tags and fusions are not shown. Lines headed by an entry give the natural chain unless they say otherwise; changes in a name come on top. A line that says so, or that is headed by a name, gives the form on record, which may keep a tag or linker. Residues count along the entry.
TGF-β1 (endogenous, naïve CD4+ T cells) (mouse (endogenous in naïve CD4+ T cells)) (P04202, residues 30-390): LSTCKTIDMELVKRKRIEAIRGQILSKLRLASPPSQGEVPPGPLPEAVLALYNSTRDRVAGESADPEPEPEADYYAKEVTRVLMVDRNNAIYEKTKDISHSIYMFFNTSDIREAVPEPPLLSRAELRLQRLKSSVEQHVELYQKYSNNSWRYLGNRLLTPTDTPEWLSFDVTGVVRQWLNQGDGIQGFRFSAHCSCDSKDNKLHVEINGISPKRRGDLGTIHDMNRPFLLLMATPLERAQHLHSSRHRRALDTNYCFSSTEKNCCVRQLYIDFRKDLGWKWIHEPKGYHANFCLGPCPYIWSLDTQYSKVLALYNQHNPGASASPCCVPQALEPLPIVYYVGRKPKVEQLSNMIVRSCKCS
Flag-TGF-β1T282A (P04202, form named): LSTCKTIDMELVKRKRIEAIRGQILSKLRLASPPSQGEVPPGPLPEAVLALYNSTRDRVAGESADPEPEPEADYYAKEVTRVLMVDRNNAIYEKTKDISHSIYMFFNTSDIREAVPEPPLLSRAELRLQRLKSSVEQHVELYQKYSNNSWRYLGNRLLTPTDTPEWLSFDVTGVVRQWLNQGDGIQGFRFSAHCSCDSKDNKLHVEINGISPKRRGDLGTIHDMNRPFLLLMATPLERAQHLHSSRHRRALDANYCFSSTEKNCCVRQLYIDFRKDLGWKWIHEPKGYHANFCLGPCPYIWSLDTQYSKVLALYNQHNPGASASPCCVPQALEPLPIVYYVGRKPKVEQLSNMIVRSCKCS
UniProt Q9WUD1: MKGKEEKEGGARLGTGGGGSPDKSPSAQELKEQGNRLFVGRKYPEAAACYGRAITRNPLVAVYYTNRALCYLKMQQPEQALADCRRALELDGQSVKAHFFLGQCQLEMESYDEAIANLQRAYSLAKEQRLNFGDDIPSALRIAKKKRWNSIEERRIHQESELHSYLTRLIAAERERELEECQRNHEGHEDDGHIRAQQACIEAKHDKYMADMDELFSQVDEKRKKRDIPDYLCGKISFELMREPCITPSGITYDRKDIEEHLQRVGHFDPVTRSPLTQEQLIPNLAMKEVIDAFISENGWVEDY

Assays:
[1] = biological target: TGF-β1 (endogenous, naïve CD4+ T cells) (mouse (endogenous in naïve CD4+ T cells)) (UniProt P04202); assay: co-IP; endogenous proteins in naïve CD4+ T cells stimulated with anti-CD3 and anti-CD28 for 24 h (also with 50 μM UDCA, with or without 2 μM H89); IP with anti-TGF-β1 or IgG, immunoblot
His-CHIP = His-CHIP (UniProt Q9WUD1); assay: pull-down; about 1 µg His-CHIP bound to His beads mixed with 1 µg Flag-TGF-β1WT or Flag-TGF-β1T282A, 4 °C overnight, washed three times with cell lysis buffer, immunoblot; both purified

Row | Substance | binding [1] | binding (His-CHIP)
1 | CHIP (endogenous, naïve CD4+ T cells) (from UniProt Q9WUD1 1-304) (enzyme) | binds | –
2 | Flag-TGF-β1T282A (from UniProt P04202 30-390) | – | binds weakly
